{"source": "patent US20240269320A1", "about": "“EXTENDED RELEASE DRUG DELIVERY SYSTEM FOR OCULAR DRUGS AND METHODS OF USE” (Eyedea Bio, LLC, priority 2021, published 2024)", "key": {"RPE cells": {"tested_on": "RPE cells", "experiment": "In vitro culture model of dry AMD: RPE cells with hydroquinone (HQ)-induced mitochondrial dysfunction", "type": "cell-based"}, "[1]": {"experiment": "Spontaneous hydrolysis of prodrug in phosphate-buffered saline without esterase", "type": "physicochemical", "settings": "phosphate-buffered saline at 37° C. without esterase"}}, "note": "Like-named read-outs stand apart in the source and are kept apart here. At least one peptide structure holds a part that was inferred or is arguable (an end, a ring closure or a residue). Non-standard residues stand in square brackets, D forms with d. Residues, ends and D or L forms follow the SMILES beside them. *: point of attachment. Dmt = Cc1cc(O)cc(C)c1C[C@H](N)C(=O)O; X1 = CCCCCCCCCCCCCCCCCCO*", "data": [{"compound": "CNC(=O)c1ccccc1Sc1ccc2c(/C=C/c3ccccn3)n[nH]c2c1", "note": "[Axitinib 100 μg (1 mo)]", "values": [{"measurement": "Choroid", "setting": "Rabbit retina levels", "value": 25, "unit": "ng/g"}, {"measurement": "Retina", "setting": "Rabbit retina levels", "value": 23, "unit": "ng/g"}, {"measurement": "Vitreous", "setting": "Rabbit retina levels", "value": 5.6, "unit": "ng/g"}]}, {"compound": "CNC(=O)c1ccccc1Sc1ccc2c(/C=C/c3ccccn3)n[nH]c2c1", "note": "[Axitinib 100 μg (1 week)]", "values": [{"measurement": "Choroid", "setting": "Rabbit retina levels", "value": 52, "unit": "ng/g"}, {"measurement": "Retina", "setting": "Rabbit retina levels", "value": 45, "unit": "ng/g"}, {"measurement": "Vitreous", "setting": "Rabbit retina levels", "value": 5.7, "unit": "ng/g"}]}, {"compound": "CCCCCCCCCCCCCCCCCCOC(=O)[C@H](Cc1ccccc1)NC(=O)[C@H](CCCCN)NC(=O)[C@H](Cc1c(C)cc(O)cc1C)NC(=O)[C@H](N)CCCNC(=N)N", "note": "[EY005-stearyl, H-d-Arg-DMT-Lys-Phe(O)-stearyl] (H-[dR][Dmt]KF-X1)", "values": [{"measurement": "efficacy compared with native peptide (5 μM) for reversal of RPE mitochondrial dysfunction", "setting": "RPE cells", "value": "efficacy equivalent to treatment with EY005 native peptide"}, {"measurement": "reversal of HQ-induced mitochondrial dysfunction (flavoprotein-autofluorescence, actin cytoskeleton)", "setting": "RPE cells; 5 μM, RPE cells with endogenous esterases", "value": "effectively reversed HQ-induced mitochondrial dysfunction"}, {"measurement": "quantification of actin cytoskeletal dysmorphology, potency compared with native peptide", "setting": "RPE cells; 5 μM, at least 3 replicates", "value": "potency equal to the native EY005 peptide"}, {"measurement": "quantification of flavoprotein autofluorescence (FP-AF), potency compared with native peptide", "setting": "RPE cells; 5 μM, at least 3 replicates", "value": "potency equal to the native EY005 peptide"}, {"measurement": "efficacy compared with native peptide (5 μM) for reversal of RPE mitochondrial dysfunction", "setting": "RPE cells; listed as H-d-Arg-DMT-Lys-Phe(—O)-stearyl", "value": "efficacy equivalent to treatment with H-d-Arg-DMT-Lys-Phe native peptide"}, {"measurement": "time for cleavage of the ester bond by hydrolysis", "setting": "[1]", "value": "~36", "unit": "h"}, {"measurement": "cleavage of EY005-stearyl prodrug to EY005 MTT by hydrolysis", "setting": "[1]; after 6 hours", "value": "partial cleavage"}]}]}
